Whole data set: some 33,000 sequences, median “E-score (-0.5 to 0.5)” near -0.0014, cut for the highest 2% near 0.25. The list shows a part of the results.
molecular target: T1, Cad1 (UniProt P24813); test: PBM E-score (8-mer binding enrichment) (E-score (-0.5 to 0.5)); higher = stronger / more preferred TF binding; details: protein concentration: 100 nM; construct: GST-full length
T1 sequence: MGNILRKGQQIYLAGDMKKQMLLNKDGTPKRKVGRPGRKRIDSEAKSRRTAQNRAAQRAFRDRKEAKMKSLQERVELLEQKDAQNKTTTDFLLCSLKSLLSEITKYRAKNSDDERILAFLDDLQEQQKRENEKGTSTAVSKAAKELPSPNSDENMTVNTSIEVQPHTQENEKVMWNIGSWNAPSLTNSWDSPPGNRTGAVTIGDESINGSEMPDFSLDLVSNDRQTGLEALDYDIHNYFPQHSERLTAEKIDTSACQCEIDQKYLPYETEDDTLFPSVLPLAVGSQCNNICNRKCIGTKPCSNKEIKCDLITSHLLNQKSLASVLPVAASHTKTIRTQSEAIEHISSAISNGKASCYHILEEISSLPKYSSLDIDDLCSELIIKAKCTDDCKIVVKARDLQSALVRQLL
How it was run: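 Each ungapped eight-base word and its reverse complement, pooled, received an E-score from the Universal PBM Analysis Suite. Underlying scans, normalised with masliner, recorded fluorescent anti-GST bound to GST-tagged yeast transcription factors. These were applied at about 100-200 nM to universal all-10-mer Agilent arrays double-stranded by primer extension.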

Sequence	PBM E-score
AACTCCTA	-0.088
CCGTTTGC	-0.085
GAGGACTC	-0.255
CCAGCTTA	0.128
AATATAAG	0.297
GGCAGAGA	-0.03
CACCGGCG	-0.0503
AACCTGAT	0.0729
AATACTGT	0.183
AACTGCAT	0.119
TGACGCAA	0.00382
CGGCCATC	-0.139
ACGAATCA	0.104
AATATGCT	0.208
CAATCCTC	-0.0001
AGTGGGGG	-0.374
AGAAGTTG	-0.188
ATGGAGCC	-0.245
TAATGTGA	0.236
AGTAGGGA	-0.139
CTACGCTC	-0.146
ATCTCCTC	-0.121
GCTCTGTA	-0.11
AGTAAAAA	0.0197
AGCCTCAC	-0.137

Shown comma-delimited: entries from further up.
Sequence,PBM E-score
AACCTGAT,0.0729
AATACTGT,0.183
AGCCTCAC,-0.137

(cont.)

Sequence	PBM E-score
CCGAATGA	0.114
CGGCGCAC	0.0919
ACCACCGT	-0.17
AATGAACC	-0.036
AATATTCC	0.297
ACGGGGGG	-0.442
AAATAATT	0.295
ATTTTGCG	0.051
GCGCCCCC	-0.361
CCGTCGAG	0.123
AAGGGTTA	-0.0751
GGTGCTTA	0.117
ACTCTATC	0.0099
ATACGTTC	-0.088
CAAATCGA	0.102
ACAGTACG	0.0255
GATACGAA	0.0432
GACGCCGC	0.0922
ACCCGGCA	-0.0218
CAACAAAG	0.0781
CCGCAATA	0.233
CGATGAGC	-0.0574
AATAGTAC	0.0507
ATCGGGCG	-0.0127
ATGCGCAT	0.334

Sequence	PBM E-score
GCGTGAAC	-0.0514
AAGGTGGC	-0.106
CTATGAAG	-0.00053
CGTTTGAA	-0.0582
CGTACGAG	-0.126
GGAGCTCA	-0.128
ATTGCTAG	0.014
ACAGGCTC	-0.127
AGCGTGGA	0.00412
CGGTTCAA	-0.152
GGGGTAAC	-0.162
GCCAGGGA	-0.103
ATCACAAA	0.147
AACATCGA	0.153
CACAGCCG	0.0914
CCGTTAAA	-0.135
AGTCCTTA	-0.0318
CTCAGAAC	0.106
ATACTGTC	0.0829
CTCCTGCA	-0.102
AGGCGCGC	0.161
AGAAGTCA	0.0277
AGAGAACG	0.083
ATGTTTAA	0.182
CGACAGAA	0.102

Sequence	PBM E-score
ACAAAGGG	-0.0853
CGGCTACG	-0.106
GAGTCTAA	-0.166
GCTTTCAA	0.19
CGTGCCAC	-0.091
CATCCGAG	0.0112
GGCACACA	-0.127
CGTGTTAA	0.164
AAGCTTAT	0.175
TAGTAATA	0.371
AGATGGGC	-0.0983
ACTACCAT	-0.0757
ACTAGGGA	-0.257
CTCGGTAA	2e-05
AGATATCT	0.0216
AACAACAC	0.155
AAGAGACT	-0.228
CCATTCGG	-0.0615
AACATTAC	0.109
ACCGATAT	0.0279
CGAAACCA	0.11
CATCAATA	0.197
ACGCCGAA	-0.0244
CGAACCCG	-0.071
CAATAGGA	-0.021

Copied from the list.
Entry for CAATAGGA under PBM E-score: -0.021
Entry for CGAAACCA under PBM E-score: 0.11
Entry for AGATATCT under PBM E-score: 0.0216
Entry for GAGTCTAA under PBM E-score: -0.166
Entry for CATCCGAG under PBM E-score: 0.0112

Later entries:

Sequence	PBM E-score
ACAAACGC	-0.0375
CTATCCGC	0.207
GACCCAGC	-0.263
CTTATTGA	0.0117
CAGGTCGG	-0.0877
ACCACTTA	-0.00031
GCAGGAGA	-0.0235
CAGCCATC	-0.00262
AGCGGGCG	-0.11
ATACTACG	0.0717
AGATTCTA	-0.0987
ACCCGTAT	0.0843
GCGTCTAC	0.0366
AGGCTTAG	0.0871
GCAAGGAA	-0.0012
AATTAAAC	0.13
CAAAGTAC	0.0445
CACGAATA	0.128
TATACGCA	0.11
CCACTCGG	-0.0924
AGTCGCGC	0.212
CCGATGAC	0.117
CGTCCTGC	-0.14
CGATGACC	-0.00705
ACAGCGAT	-0.0854

Sequence	PBM E-score
ATCTTTAG	0.0251
CATGTTGC	0.007
CCAGTGCG	-0.288
ACCAATTC	0.226
CGGCTCCA	-0.0781
ATTCCGCC	0.108
CAAACAGA	0.117
ATCTAGGA	-0.105
ACAAGCGT	0.0246
AATAAGGT	0.045
ATGATAAG	0.197
CAGCCGAA	0.00688
CACGGGAG	-0.109
ACGGGCCT	-0.153
CGCCGGTA	0.0298
GATCCGGC	0.131
AAACTATT	0.0627
GTTAAGTA	0.101
CTCATATA	0.141
CGCATCCC	-0.371
AATATCGA	0.242
AGCGCAGA	0.00651
CGTACGTA	-0.0286
CGCGAAAC	0.168
ATGGTGAA	-0.0239

Sequence	PBM E-score
AAAACTAA	0.247
GCATTCCA	-0.134
ATGAATCC	0.16
CTGATGCA	0.103
AATATTCT	0.126
CAGAACTG	0.164
AGCGGTAT	0.124
CGGACCCA	-0.00824
CAGCCAAC	0.0207
CTATATAA	0.0617
AAGGCAGG	-0.193
AACGTGAG	-0.0528
TATCTGGA	-0.125
ACTTCTAC	-0.052
CGCCGACA	-0.035
CACGCCGC	-0.207
AGCGTGTC	-0.0741
ACTGTACA	-0.103
TAAAAAAA	0.061
GGTTGAGA	-0.224
ATTCCTAG	0.0442
ACGGCTTG	-0.129
CGGTGTGC	-0.179
CCACGGTC	-0.3
ACGACCAT	-0.196

Sequence	PBM E-score
CCAACCCA	-0.235
ATTCAGGC	0.0778
ACACGGTG	-0.0772
CGGATCGA	0.149
AAAGGCGA	-0.215
GGCGCTAC	-0.214
AGAGCGTC	0.0213
GGCAGCTA	0.119
GTGCATCA	0.128
AGGTCAAT	-0.0613
GGGCGGTA	-0.222
AGGCGGAA	0.0472
TCGCACAA	0.111
AGGCAACA	-0.18
ATACATTG	0.108
ATGTAGGC	-0.118
CACCTTCG	-0.115
GGGTATAC	0.0548
CGAATTAG	0.114
GCGGACTA	0.0278
ATAAGTGG	0.14
AACGTGCG	0.0339
CTACTTCA	-0.0482
CGCACCAC	0.079
TCGCTGAA	0.0787

Sequence	PBM E-score
ACACCAAT	0.148
CTATATGA	0.188
TCCTGACA	0.125
ACCAGGAT	0.148
CCTCCGGC	-0.0803
GCAGATCA	0.091
CCTCTACG	-0.234
TAATCAAA	0.219
GCAATTAC	0.00875
AAACCTAT	0.0415
CAATAAGG	-0.212
ACTGACCA	-0.105
ATGGCGGC	-0.0946
ATTATAGG	0.0152
AAACCAAC	-0.0489
CAAGTGCA	-0.0689
ATCGTATA	0.0956
AATTACAC	0.148
GTGTGAAC	-0.0104
AACCCTGT	-0.0735
AAGGTAAC	0.0649
ACTTGCAA	0.223
TGGGCACA	0.0246
ATGGGCAA	0.0197
ATTGTTTG	0.118

Sequence	PBM E-score
TCAGTTCA	0.0157
GGGAGAAC	-0.199
TAGATCGA	0.0219
AGCCCTTG	-0.183
GATTGCTA	0.022
GATCGGCA	-0.0171
AAAAAAGC	0.145
CACTATCC	0.00309
CCGATGGC	-0.118
GCTGAATA	0.0425
AATGGTCA	0.187
TCGACAGA	-0.0541
CGCGACCC	0.0122
CAATTCTG	-0.14
TGCTAAAA	-0.0559
CGGATGTC	0.0171
ACGGAAGT	-0.0254
AGAGGGCT	-0.242
AACGTTCT	0.165
ATGCCATA	0.0121
CCGTCACC	-0.201
ACATCAGG	-0.0345
ATTTAGGG	0.0495
AGAATAGA	-0.0594
ACCAGCAT	0.101

5 entries picked at random from the list so far:
Sequence	PBM E-score
CCGATGGC	-0.118
AACGTTCT	0.165
TAGATCGA	0.0219
GATTGCTA	0.022
GATCGGCA	-0.0171

The list continues.

Sequence	PBM E-score
ACGCATTA	0.145
AGGATACT	-0.141
ACTAAGGG	0.00137
AGAGTACC	-0.159
AAGCCGCC	-0.0596
AGCAGTTA	0.0263
AATACCTC	0.089
CTTCTCTA	-0.218
ACGCAAGC	0.129
TCTTCTAA	0.0169
CATAGTCC	0.00181
AGAACCAT	0.0585
TAATTTAA	0.206
GATCTGCA	-0.0306
AACATATT	0.164
GGTCATTA	0.0138
ACGCCGCT	0.0308
CACCGTGA	-0.0822
ACCCGCAG	0.016
AAACCTAC	0.0716
ATGATCAC	0.151
AGAAGTGA	0.0136
ATCTTAGC	-0.0411
ACAAAAAT	0.228
AACACCAT	0.00258

Sequence	PBM E-score
GATAGCGC	0.0821
AGATGGCC	-0.07
ACTACTCG	0.00646
CCGAAGGC	-0.0842
ATAACGCG	0.106
AACGCAAA	-0.00945
GCATTAAA	0.103
CGGCGTAC	-0.16
CATGGAAC	-0.157
CTTCTAGC	-0.245
GGATGAAA	0.195
CCACTGCC	-0.0615
CTCAAGAA	-0.141
TCATCTCA	0.0213
CCGATGTC	-0.0199
CAGCTAAC	-0.0904
ACGCCAGG	-0.15
GGAATGCC	-0.234
AACTTACT	-0.0879
ACACTGGG	-0.121
ATATCTTA	0.192
AAAGGGAG	-0.286
CTATTGTA	0.072
ACCTAGGA	-0.0276
GCCGGCAA	0.159

Sequence	PBM E-score
GAGTCACC	-0.207
CGCTTGTA	0.00721
CATTGAAA	0.231
CCCATGGA	0.00891
ACCTGCAA	0.0328
CAATTCTA	-0.164
ATACATGA	0.0597
CGCCAAGA	-0.089
GCCGCTAA	0.0878
AGCTGTAC	-0.0779
ATTCATGG	0.0754
AGATGTGC	-0.0124
AAAACCAT	0.034
TTATTGAA	0.067
CGGTGGCA	-0.223
CGACCTTA	0.0416
AAGTTCTA	0.048
AATAGGTA	-0.0466
CCGCCTCC	-0.305
GCACCACA	0.104
TAACGAGA	-0.136
AGCACCAG	-0.068
AAACAGAG	-0.068
ATACCTTG	-0.00469
ATAGGAAC	0.0789

Sequence	PBM E-score
CCGGCCCG	-0.109
GGTATACA	0.0215
AGGCATAT	-0.0322
GAGCCCTC	-0.242
GTGCTATA	0.00304
CTTCAAGC	-0.0718
GGGTTCCA	-0.203
ACTGCAGG	-0.14
CGACCGTA	-0.231
ACGATTGA	0.0475
CCACCCGA	0.0445
CAGAGTTA	-0.0305
ATAATTTA	0.236
ACGTCCAG	-0.101
AGAAGACT	-0.262
AGTGCGAA	-0.0323
CTAGCCAA	0.0718
AATACTCT	0.018
ATCCCTCA	-0.0774
